Source: patent US10449223B2, “Use of dehydroeburicoic acid from Antrodia camphorata in the treatment or prevention of diabetes and hyperlipidemia” (priority 2016, dated 2019)

Tested on: STZ-induced diabetic mice
Assay: Tissue weight, body weight and food intake in STZ-induced diabetic mice
Type: in vivo, C57BL/6J mice
Conditions: 28 days

Compound	Tissue weight: Skeletal muscle (Metf 300 mg/kg/day oral) [wt %]	Tissue weight: liver (Metf 300 mg/kg/day oral) [wt %]	Tissue weight: spleen (Metf 300 mg/kg/day oral) [wt %]	Weight gain (Metf 300 mg/kg/day oral) [g]	Tissue weight: Skeletal muscle (TT 10 mg/kg/day oral) [wt %]	Tissue weight: liver (TT 10 mg/kg/day oral) [wt %]	Tissue weight: spleen (TT 10 mg/kg/day oral) [wt %]	Weight gain (TT 10 mg/kg/day oral) [g]	Tissue weight: Skeletal muscle (TT 20 mg/kg/day oral) [wt %]	Tissue weight: liver (TT 20 mg/kg/day oral) [wt %]	Tissue weight: spleen (TT 20 mg/kg/day oral) [wt %]	Weight gain (TT 20 mg/kg/day oral) [g]	Tissue weight: Skeletal muscle (TT 40 mg/kg/day oral) [wt %]	Tissue weight: spleen (TT 40 mg/kg/day oral) [wt %]
CN(C)C(=N)N=C(N)N [Metf, metformin, reference compound]	1.208 ± 0.149	4.168 ± 0.100	0.230 ± 0.007	2.32 ± 0.25	–	–	–	–	–	–	–	–	–	–
C=C(CC[C@@H](C(=O)O)[C@H]1CC[C@@]2(C)C3=CC[C@H]4C(C)(C)[C@@H](O)CC[C@]4(C)C3=CC[C@]12C)C(C)C [TT, dehydroeburicoic acid]	–	–	–	–	1.162 ± 0.097	3.952 ± 0.138	0.213 ± 0.019	2.73 ± 0.38	1.112 ± 0.096	3.966 ± 0.171	0.193 ± 0.021	2.36 ± 0.27	1.128 ± 0.110	0.215 ± 0.017
